Substitutions are numbered along the chain they refer to. Construct, isoform or probe ends are uncertain for at least one entry. For some assays here: No signal at the amounts used counts as a negative. At least one verdict rests on a figure or table, not on a statement of the authors. Where a protein sequence is shown, tags need not be part of it.
Tests used:
[1] = target: T1, MipZ (Caulobacter crescentus) (UniProt Q9A6C9); assay: competition with a labelled probe; conditions: SPR competition, 2 mM ATP, 6 uM competitor; EMSA: 1.25 mM nucleotide, 270 nM-5.6 uM protein, room temperature; recombinant protein
T1 sequence (looked up, limits assumed): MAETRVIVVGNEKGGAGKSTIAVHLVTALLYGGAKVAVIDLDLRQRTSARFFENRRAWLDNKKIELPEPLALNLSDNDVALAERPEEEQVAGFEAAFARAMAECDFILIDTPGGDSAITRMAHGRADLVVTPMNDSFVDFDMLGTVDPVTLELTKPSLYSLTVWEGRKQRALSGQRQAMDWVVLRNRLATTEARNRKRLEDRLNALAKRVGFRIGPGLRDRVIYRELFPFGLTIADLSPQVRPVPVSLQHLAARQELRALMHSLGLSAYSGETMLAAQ

[2] = target: T2, MipZ-K13A (Caulobacter crescentus) (UniProt Q9A6C9); assay: SPR; conditions: ADP; SPR: buffer P2 or buffer BC (Mg2+-containing) with 2 mM nucleotide; recombinant protein; label: biotin (immobilized)
T2 sequence (looked up, limits assumed): T1 sequence (looked up, limits assumed) with K13A

[3] = target: T3, MipZ-G14V (Caulobacter crescentus) (UniProt Q9A6C9); assay: SPR; conditions: ADP; SPR: buffer P2 or buffer BC (Mg2+-containing) with 2 mM nucleotide; recombinant protein; label: biotin (immobilized)
T3 sequence (looked up, limits assumed): T1 sequence (looked up, limits assumed) with G14V

[4] = target: T1, MipZ (Caulobacter crescentus); assay: SPR; conditions: SPR: buffer P2 or buffer BC (Mg2+-containing) with 2 mM nucleotide, recombinant protein, label: biotin (immobilized)
[5] = target: T4, MipZ-K18Q (Caulobacter crescentus) (UniProt Q9A6C9); assay: SPR; conditions: ADP; SPR: buffer P2 or buffer BC (Mg2+-containing) with 2 mM nucleotide; recombinant protein; label: biotin (immobilized)
T4 sequence (looked up, limits assumed): T1 sequence (looked up, limits assumed) with K18Q

[6] = target: T5, MipZ-D42A (Caulobacter crescentus) (UniProt Q9A6C9); assay: SPR; conditions: ADP; SPR: buffer P2 or buffer BC (Mg2+-containing) with 2 mM nucleotide; recombinant protein; label: biotin (immobilized)
T5 sequence (looked up, limits assumed): T1 sequence (looked up, limits assumed) with D42A

Sequence	binding result [1]	binding result [2]	binding result [3]	binding result ([4]; 2 mM ATP without Mg2+ (10 mM EDTA))	binding result ([4]; ADP)	binding result ([4]; no nucleotide)	binding result [5]	binding result [6]
GTCGACAGAGTTCGCTAACATCGAGC (double strand) [ran2 unlabelled competitor]	binds							
GTCGACAGAGTTCGCTAACATCGAGC (double strand) [ran2]		no binding	no binding	no binding	no binding	no binding	no binding	no binding

Reference: article PMC3355305, “Localized Dimerization and Nucleoid Binding Drive Gradient Formation by the Bacterial Cell Division Inhibitor MipZ” (Molecular Cell, 2012)
